{"source": "patent US20210177881A1", "about": "“MEDICAMENT FOR PREVENTING AND/OR TREATING PAIN AND/OR FEVER, COMPOSITE PRODUCT AND USE THEREOF” (SHANGHAI TONGLIAN PHARMACEUTICAL CO., LTD., priority 2018, published 2021)", "system": "mice", "experiment": "Analgesia experiment on a hot plate in mice", "type": "in vivo, Kunming mice", "conditions": "15 mg/kg", "excerpt": "The mouse hot plate method is a classic method for screening analgesics. Its principle is to put the mouse on a hot plate heated to a constant temperature of (55±0.1 DEG C.) in advance, and when the foot of the mouse is stimulated by the hot plate to produce pain, the time required for foot licking is taken as the pain threshold, which is taken as the observation index, and the changes of threshold before and after medication are compared to evaluate the analgesic effect.\nBefore the experiment, the mice in each group were given intragastric administration. The mice in the blank control group were given the same volume of normal saline every day for 3 consecutive days.\nThe mice were put on a hot plate pain meter heated to 55 DEG C. in advance, and the time from putting into the hot plate to licking hind feet was recorded with a stopwatch as the pain threshold of the mice. […] It was measured once at 30, 60, 90 and 120 min after administration. After the end of the experiment, the percentage of pain threshold increase was calculated according to the measured average value of pain threshold. The percentage of pain threshold increase %=(an average pain threshold after administration−an average pain threshold before administration)÷the average pain threshold before administration×100%."}
{"smiles": "CN1CC[C@]23c4c5ccc(O)c4O[C@H]2[C@@H](O)C=C[C@H]3[C@H]1C5.Cl", "note": "[positive control, morphine hydrochloride]", "values": [{"measurement": "time to lick hind feet after administration", "setting": "30 min", "value": "31.84 ± 7.17", "unit": "s"}, {"measurement": "time to lick hind feet after administration", "setting": "60 min", "value": "29.17 ± 6.17", "unit": "s"}, {"measurement": "time to lick hind feet after administration", "setting": "90 min", "value": "28.77 ± 6.71", "unit": "s"}, {"measurement": "time to lick hind feet after administration", "setting": "120 min", "value": "26.17 ± 5.14", "unit": "s"}]}
